Literature values, collected in article PMC8593021, “Biophysical and functional characterization of the human TAS1R2 sweet taste receptor overexpressed in a HEK293S inducible cell line” (Scientific Reports, 2021).

Conditions: on a molar basis; cited from earlier work

C=C(C)C1CC=C(/C=N/O)CC1 (stereo in doubt) [Perillartine, perillartine]
Relative sweetness: 2000

CC1=CC(=O)NS(=O)(=O)O1 [Acesulfame-K, acesulfame-K]
Relative sweetness: 200

O=S(=O)(O)NC1CCCCC1 [Cyclamate-Na, cyclamate-Na]
Relative sweetness: 30–50

COC(=O)[C@H](Cc1ccccc1)NC(=O)[C@H](CC(=O)O)NCCC(C)(C)C [Neotame, neotame]
Relative sweetness: 11,000

OC[C@H]1O[C@H](O[C@]2(CCl)O[C@H](CCl)[C@@H](O)[C@@H]2O)[C@H](O)[C@@H](O)[C@H]1Cl [Sucralose, sucralose]
Relative sweetness: 600
